Experimental findings from patent EP1353939B1 (Sankt-Peterburgskaya Obschestvennaya Organizatsia …, priority 2001, dated 2004) are described below.

The star is where a group is joined. Cbz = O=C(OCc1ccccc1)*; OBn = c1ccc(CO*)cc1

This data set can be described thus: general procedure: solution-phase peptide synthesis; N,N'-dicyclohexylcarbodiimide / N-oxybenzotriazol.

In the case of Cbz-K(Cbz)E(OBn)D(OBn)P-OBn, the step yield (coupling step) is on record as 68%.

H-Lys-Glu-Asp-Pro-OH came in with a step yield (late stage modification step) of 90%. For the same substance, the “final HPLC purity” value (purification step, 220 nm) is 98.56%.
